Data as given in PubChem BioAssay AID1224830 (NIAID, 2016)
Test: 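Regulators of TLR4 signalling towards TNF-alpha in macrophage-like cells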 (primary screen). System: human THP-1 monocytic leukaemia cells, TNF dual-luciferase reporter clone, PMA-differentiated to macrophage-like cells. Knock-down reagent: siRNA pool against human genes, 50 nM. Time to read-out: LPS for 4 h, given about 3 days after siRNA transfection. Challenge: bacterial LPS (TLR4 ligand), 10 ng/ml. Measured: 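TNF firefly reporter luminescence divided by renilla, normalised to the plate median, then turned into a robust z-score for each replicate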. Reading the numbers: TNF reporter robust z-score: higher = stronger TNF reporter response to LPS. Call rule: 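Each well counts as active if its z-score is over 2.8 or under -1.5; controls are left without a call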.
This is an unselected part of about 18,000 reagents. Over the whole deposit, about 2,900 (16%) are marked active. 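Calls are made per well; low scores hint the gene aids the LPS response, high scores that it dampens it.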 Repeated entries: four replicate wells of each siRNA pool.

The opening 14 entries, ahead of the listing:
| target gene | TNF reporter robust z-score | Outcome |
| --- | --- | --- |
| TEK (TEK receptor tyrosine kinase) | -0.71 | inactive |
| TEK (TEK receptor tyrosine kinase) | 1.68 | inactive |
| TEK (TEK receptor tyrosine kinase) | -0.05 | inactive |
| TEK (TEK receptor tyrosine kinase) | 0.69 | inactive |
| HTR1E (5-hydroxytryptamine receptor 1E) | 2.12 | inactive |
| HTR1E (5-hydroxytryptamine receptor 1E) | 1.56 | inactive |
| HTR1E (5-hydroxytryptamine receptor 1E) | 1.59 | inactive |
| HTR1E (5-hydroxytryptamine receptor 1E) | 2.18 | inactive |
| ZSCAN16 (zinc finger and SCAN domain containing 16) | -0.55 | inactive |
| ZSCAN16 (zinc finger and SCAN domain containing 16) | -0.24 | inactive |
| ZSCAN16 (zinc finger and SCAN domain containing 16) | -0.35 | inactive |
| ZSCAN16 (zinc finger and SCAN domain containing 16) | 0.75 | inactive |
| GLDC (glycine decarboxylase) | -0.26 | inactive |
| GLDC (glycine decarboxylase) | -0.1 | inactive |

The listing, from the start:
| target gene | TNF reporter robust z-score | Outcome |
| --- | --- | --- |
| TEK (TEK receptor tyrosine kinase) | -0.71 | inactive |
| TEK (TEK receptor tyrosine kinase) | 1.68 | inactive |
| TEK (TEK receptor tyrosine kinase) | -0.05 | inactive |
| TEK (TEK receptor tyrosine kinase) | 0.69 | inactive |
| HTR1E (5-hydroxytryptamine receptor 1E) | 2.12 | inactive |
| HTR1E (5-hydroxytryptamine receptor 1E) | 1.56 | inactive |
| HTR1E (5-hydroxytryptamine receptor 1E) | 1.59 | inactive |
| HTR1E (5-hydroxytryptamine receptor 1E) | 2.18 | inactive |
| ZSCAN16 (zinc finger and SCAN domain containing 16) | -0.55 | inactive |
| ZSCAN16 (zinc finger and SCAN domain containing 16) | -0.24 | inactive |
| ZSCAN16 (zinc finger and SCAN domain containing 16) | -0.35 | inactive |
| ZSCAN16 (zinc finger and SCAN domain containing 16) | 0.75 | inactive |
| GLDC (glycine decarboxylase) | -0.26 | inactive |
| GLDC (glycine decarboxylase) | -0.1 | inactive |
| GLDC (glycine decarboxylase) | 0.86 | inactive |
| GLDC (glycine decarboxylase) | 1.25 | inactive |
| KICS2 (KICSTOR subunit 2) | -0.05 | inactive |
| KICS2 (KICSTOR subunit 2) | 1.17 | inactive |
| KICS2 (KICSTOR subunit 2) | 0.13 | inactive |
| KICS2 (KICSTOR subunit 2) | 2.06 | inactive |
| CCL27 (C-C motif chemokine ligand 27) | 0.16 | inactive |
| CCL27 (C-C motif chemokine ligand 27) | 0.6 | inactive |
| CCL27 (C-C motif chemokine ligand 27) | 0.64 | inactive |
| CCL27 (C-C motif chemokine ligand 27) | 0.43 | inactive |
| ZNF133 (zinc finger protein 133) | -0.38 | inactive |
| ZNF133 (zinc finger protein 133) | -0.18 | inactive |
| ZNF133 (zinc finger protein 133) | -0.55 | inactive |
| ZNF133 (zinc finger protein 133) | -0.09 | inactive |
| MCRIP2 (MAPK regulated corepressor interacting protein 2) | -1.72 | active |
| MCRIP2 (MAPK regulated corepressor interacting protein 2) | -1.54 | active |
| MCRIP2 (MAPK regulated corepressor interacting protein 2) | -1.7 | active |
| MCRIP2 (MAPK regulated corepressor interacting protein 2) | -1.5 | inactive |
| QRSL1 (glutaminyl-tRNA amidotransferase subunit QRSL1) | 1.45 | inactive |
| QRSL1 (glutaminyl-tRNA amidotransferase subunit QRSL1) | 1.12 | inactive |
| QRSL1 (glutaminyl-tRNA amidotransferase subunit QRSL1) | 1.72 | inactive |
| QRSL1 (glutaminyl-tRNA amidotransferase subunit QRSL1) | 1.33 | inactive |
| TRAF4 (TNF receptor associated factor 4) | 3.19 | active |
| TRAF4 (TNF receptor associated factor 4) | 1.93 | inactive |
| TRAF4 (TNF receptor associated factor 4) | 2.81 | active |
| TRAF4 (TNF receptor associated factor 4) | 5.5 | active |
| ATM (ATM serine/threonine kinase) | -0.9 | inactive |
| ATM (ATM serine/threonine kinase) | -1.11 | inactive |
| ATM (ATM serine/threonine kinase) | -0.34 | inactive |
| ATM (ATM serine/threonine kinase) | -0.39 | inactive |
| SULT1A4 (sulfotransferase family 1A member 4) | -1.02 | inactive |
| SULT1A4 (sulfotransferase family 1A member 4) | -0.81 | inactive |
| SULT1A4 (sulfotransferase family 1A member 4) | -0.2 | inactive |
| SULT1A4 (sulfotransferase family 1A member 4) | 0.03 | inactive |
| C16orf82 (chromosome 16 open reading frame 82) | 0.14 | inactive |
| C16orf82 (chromosome 16 open reading frame 82) | 0.2 | inactive |
| C16orf82 (chromosome 16 open reading frame 82) | -1.09 | inactive |
| C16orf82 (chromosome 16 open reading frame 82) | 2.02 | inactive |
| NLRP13 (NLR family pyrin domain containing 13) | 0.53 | inactive |
| NLRP13 (NLR family pyrin domain containing 13) | 1.85 | inactive |
| NLRP13 (NLR family pyrin domain containing 13) | 0.89 | inactive |
| NLRP13 (NLR family pyrin domain containing 13) | 2.03 | inactive |
| SLX9 (SLX9 ribosome biogenesis factor) | -0.38 | inactive |
| SLX9 (SLX9 ribosome biogenesis factor) | -0.21 | inactive |
| SLX9 (SLX9 ribosome biogenesis factor) | -0.11 | inactive |
| SLX9 (SLX9 ribosome biogenesis factor) | -0.47 | inactive |
| CPXCR1 (CPX chromosome region candidate 1) | -1.33 | inactive |
| CPXCR1 (CPX chromosome region candidate 1) | -0.7 | inactive |
| CPXCR1 (CPX chromosome region candidate 1) | -0.79 | inactive |
| CPXCR1 (CPX chromosome region candidate 1) | -0.78 | inactive |
| NFE2L3 (NFE2 like bZIP transcription factor 3) | -0.69 | inactive |
| NFE2L3 (NFE2 like bZIP transcription factor 3) | -1.16 | inactive |
| NFE2L3 (NFE2 like bZIP transcription factor 3) | -1.08 | inactive |
| NFE2L3 (NFE2 like bZIP transcription factor 3) | -0.59 | inactive |
| LHFPL6 (LHFPL tetraspan subfamily member 6) | -1.09 | inactive |
| LHFPL6 (LHFPL tetraspan subfamily member 6) | -1.21 | inactive |
| LHFPL6 (LHFPL tetraspan subfamily member 6) | -1.08 | inactive |
| LHFPL6 (LHFPL tetraspan subfamily member 6) | -0.85 | inactive |
| HLTF (helicase like transcription factor) | -0.47 | inactive |
| HLTF (helicase like transcription factor) | 0.46 | inactive |
| HLTF (helicase like transcription factor) | -0.71 | inactive |
| HLTF (helicase like transcription factor) | 2.36 | inactive |
| DAW1 (dynein assembly factor with WD repeats 1) | 0.77 | inactive |
| DAW1 (dynein assembly factor with WD repeats 1) | 2.21 | inactive |
| DAW1 (dynein assembly factor with WD repeats 1) | 1.05 | inactive |
| DAW1 (dynein assembly factor with WD repeats 1) | 1.86 | inactive |
| AIMP1 | -0.84 | inactive |
| AIMP1 | 0.32 | inactive |
| AIMP1 | -0.19 | inactive |
| AIMP1 | -0.62 | inactive |
| TERB2 (telomere repeat binding bouquet formation protein 2) | -1.65 | active |
| TERB2 (telomere repeat binding bouquet formation protein 2) | -1.16 | inactive |
| TERB2 (telomere repeat binding bouquet formation protein 2) | -0.88 | inactive |
| TERB2 (telomere repeat binding bouquet formation protein 2) | -1.74 | active |
| SIGLEC5 (sialic acid binding Ig like lectin 5) | 0.28 | inactive |
| SIGLEC5 (sialic acid binding Ig like lectin 5) | 1.39 | inactive |
| SIGLEC5 (sialic acid binding Ig like lectin 5) | -0.09 | inactive |
| SIGLEC5 (sialic acid binding Ig like lectin 5) | 2.54 | inactive |
| ZC3H7A (zinc finger CCCH-type containing 7A) | -0.65 | inactive |
| ZC3H7A (zinc finger CCCH-type containing 7A) | 0.46 | inactive |
| ZC3H7A (zinc finger CCCH-type containing 7A) | -0.17 | inactive |
| ZC3H7A (zinc finger CCCH-type containing 7A) | -0.81 | inactive |
| ANKRD46 (ankyrin repeat domain 46) | 0.19 | inactive |
| ANKRD46 (ankyrin repeat domain 46) | 1.19 | inactive |
| ANKRD46 (ankyrin repeat domain 46) | 1.56 | inactive |
| ANKRD46 (ankyrin repeat domain 46) | 0.61 | inactive |
| NTHL1 (nth like DNA glycosylase 1) | -0.98 | inactive |
| NTHL1 (nth like DNA glycosylase 1) | -0.45 | inactive |
| NTHL1 (nth like DNA glycosylase 1) | -1.18 | inactive |
| NTHL1 (nth like DNA glycosylase 1) | 0.11 | inactive |
| RAP1GDS1 (Rap1 GTPase-GDP dissociation stimulator 1) | -0.39 | inactive |
| RAP1GDS1 (Rap1 GTPase-GDP dissociation stimulator 1) | -0.32 | inactive |
| RAP1GDS1 (Rap1 GTPase-GDP dissociation stimulator 1) | -0.47 | inactive |
| RAP1GDS1 (Rap1 GTPase-GDP dissociation stimulator 1) | -0.53 | inactive |
| NQO1 (NAD(P)H quinone dehydrogenase 1) | -0.56 | inactive |
| NQO1 (NAD(P)H quinone dehydrogenase 1) | -1.13 | inactive |
| NQO1 (NAD(P)H quinone dehydrogenase 1) | -1.09 | inactive |
| NQO1 (NAD(P)H quinone dehydrogenase 1) | 0.83 | inactive |
| WDFY2 (WD repeat and FYVE domain containing 2) | -0.2 | inactive |
| WDFY2 (WD repeat and FYVE domain containing 2) | -0.27 | inactive |
| WDFY2 (WD repeat and FYVE domain containing 2) | 0.31 | inactive |
| WDFY2 (WD repeat and FYVE domain containing 2) | 1.34 | inactive |
| CFHR2 (complement factor H related 2) | -1.28 | inactive |
| CFHR2 (complement factor H related 2) | -0.87 | inactive |
| CFHR2 (complement factor H related 2) | -0.58 | inactive |
| CFHR2 (complement factor H related 2) | -0.48 | inactive |
| RBM41 (RNA binding motif protein 41) | 0.01 | inactive |
| RBM41 (RNA binding motif protein 41) | 0.67 | inactive |
| RBM41 (RNA binding motif protein 41) | -0.1 | inactive |
| CCDC50 (coiled-coil domain containing 50) | 0.05 | inactive |
| CCDC50 (coiled-coil domain containing 50) | 1.15 | inactive |
| CCDC50 (coiled-coil domain containing 50) | 0.98 | inactive |
| CCDC50 (coiled-coil domain containing 50) | 0.74 | inactive |
| JAGN1 (jagunal vesicle mediated transporter 1) | 1.6 | inactive |
| JAGN1 (jagunal vesicle mediated transporter 1) | 0.42 | inactive |
| JAGN1 (jagunal vesicle mediated transporter 1) | 0.3 | inactive |
| JAGN1 (jagunal vesicle mediated transporter 1) | 1.29 | inactive |
| SNRNP40 (small nuclear ribonucleoprotein U5 subunit 40) | -0.02 | inactive |
| SNRNP40 (small nuclear ribonucleoprotein U5 subunit 40) | 0.85 | inactive |
| SNRNP40 (small nuclear ribonucleoprotein U5 subunit 40) | -0.73 | inactive |
| SNRNP40 (small nuclear ribonucleoprotein U5 subunit 40) | 1.03 | inactive |
| ACTL10 (actin like 10) | 1.11 | inactive |
| ACTL10 (actin like 10) | 0.27 | inactive |
| ACTL10 (actin like 10) | 0.26 | inactive |
| ACTL10 (actin like 10) | -0.75 | inactive |
| APOL5 (apolipoprotein L5) | 0 | inactive |
| APOL5 (apolipoprotein L5) | -0.23 | inactive |
| APOL5 (apolipoprotein L5) | -0.33 | inactive |
| APOL5 (apolipoprotein L5) | 0.09 | inactive |
